These are yes or no findings as the source states them, for the method shown. Binding seen in cells or lysates may run through a third protein.

The target of this experiment is MUT-16 (constructs of the self co-immunoprecipitation not stated) (C. elegans) (UniProt O62011). As to the kind of experiment: co-IP; MUT-16 with itself; told in the discussion only, no data shown, constructs not stated.

B1: MUT-16 (constructs of the self co-immunoprecipitation not stated) (protein, UniProt O62011 1-1054)
chain: MSESDDDYPELDISDQYIDPLGIVVGPPPASYTETDREETPMQNRTEDDTNSYGNSSGEHDYDSYLDSGDDDFDVDAYYANDNMDEPPPETIPDNLIQNVIGRNDNADYDFSDASNPEIMKRDLQLFLSSSLLSNPLKFRSGYSSDELDDCLKSCMGYSLQVTAVLLLPPEIISQLPNDSKTEHAHALVRGGWLQSKEGAFFPVISDSERETVVSLMNGSEEQHKRQERKKKEADTFESEEKEIRTLLTFNMIAELLMAVRNEYSIRSVKYQILSTAYTNMVTGAAHANIFRKYKDILQLDPEKLWNNDWFKEYTNRGTLKKFLTTARFSEIVVSQANGKTVELYFRADDEGNRPVVLFTDEHIADVRNKWKTGNQRNQNYGSQGNYRAGGQRSDDRRGPQQRRNVIVPDPNYQPSTFAGGISNNADDDGSLQPTTSSHFNRNTDRSTSRPPRAPTSPVNRVMETDPLMGQGTSSGAPQRSAIPNPFGGAPALSRSTITNGNRGPSYGDRGERVQDVGDTTSDSEITSEGSYSDEDPEQKEIKRQRRKDKLKKKQERELRSREKHTKSKQQPPSKIETRFNTYKKKSESSATDTSNTPPVDTVNVALPTPVVESSSTTAAPSIPVSTRPEVVVPPENPAPLREVGNFYSKSNHDEDRRNVQLPFTPADTHKPIKVAPKEPVRNPLLKERPSANGFINRRLPSHPAPPPVNQSQPANQPMQTAVYQNSHPGAPYIPQQPTYQPQLPVQQPQPHQYAPQPIHHQQPIHQPMHGQQYPPVNQQQPIYQQPAPQYPPYNSIQNNPQHGPSPFNYSQVPQPAYNHVGQQPSHMSNQPHINQNGYQNSYNPNQGPTSSDPNYGCNPQFNHYGSRSVYHEDHSSQRRRSPDQFPPNPPEYDPHGNFKLADYERDRMTVGYSQNPHQFDHHGSHMPHQSQPQGYDNFNGNSAPYFNKNGGQSNHQPEAQRSFSVLSSNRQPSNRELIFQDGIEKELRDIILRYRSMNLTVLTVQELRTEVSRRPAIPRYIDIVQYIRDSSSVAIVERGDIEPYVVLKDDIRN
As to B1, the binding result was “no binding”.

Source of the values: publication PMC6072111.
